Tested on: primary CLL samples (PBMC from CLL patients), HLA class I ligands
Test: HLA class I ligandome analysis by LC-MS/MS (frequency of HLA restricted presentation)
Set-up: species or system human
Details: for Number of positive CLLs: CLL patient HLA class I ligandomes (n = 30); for Number of positive CLLs (frequency [%]): source protein (LiTAA) representation in CLL patient HLA class I ligandomes (n = 30)

Substance | Number of positive CLLs | Number of positive CLLs (frequency [%])
118 (DEHLLIQHY; listed as Homo sapiens) [compound 118] | 2 | –
121 (RQLGEVASF; listed as Homo sapiens) [compound 121] | 2 | –
188 (DMKAKVASL; listed as Homo sapiens) [compound 188] | 2 | –
126 (KQTPKVLVV; listed as Homo sapiens) [compound 126] | 1 | –
93 (SPRPPLGSSL; listed as Homo sapiens) [compound 93] | 4 | –
219 (TRHKIVHTK; listed as Homo sapiens) [compound 219] | 2 | –
129 (AEVEKNETV; listed as Homo sapiens) [compound 129] | 1 | –
153 (APSEYRYTLL; listed as Homo sapiens) [compound 153] | 3 | –
116 (SPVNSSKQPSY; listed as Homo sapiens) [compound 116] | 3 | –
89 (TPEQQAAIL; listed as Homo sapiens) [compound 89] | 1 | –
210 (SIKEKSSL; listed as Homo sapiens) [compound 210] | 1 | –
ATP synthase, H+ transporting, mitochondrial Fo complex, subunit C1 [ATP5G1] | 7 | 23.3%
170 (GRVPGPLSL; listed as Homo sapiens) [compound 170] | 1 | –
34 (GQSTPRLFSI; listed as Homo sapiens) [compound 34] | 1 | –
198 (TTYKIVPPK; listed as Homo sapiens) [compound 198] | 1 | –
209 (NPISNAVLNEY; listed as Homo sapiens) [compound 209] | 1 | –
122 (TEAETTANVL; listed as Homo sapiens) [compound 122] | 1 | –
76 (SMTSLAQKI; listed as Homo sapiens) [compound 76] | 1 | –
58 (LENDQSLSF; listed as Homo sapiens) [compound 58] | 1 | –
142 (SEYQRFAVM; listed as Homo sapiens) [compound 142] | 3 | –
181 (IGVEHVVVY; listed as Homo sapiens) [compound 181] | 5 | –
50 (KQLLAALEI; listed as Homo sapiens) [compound 50] | 1 | –

Substance | Number of positive CLLs | Number of positive CLLs (frequency [%])
119 (KQVASSTGF; listed as Homo sapiens) [compound 119] | 1 | –
197 (TEHQVPSSV; listed as Homo sapiens) [compound 197] | 1 | –
107 (TEHQEPGL; listed as Homo sapiens) [compound 107] | 2 | –
65 (LTYKLPVA; listed as Homo sapiens) [compound 65] | 1 | –
112 (RPAGEPYNRKTL; listed as Homo sapiens) [compound 112] | 2 | –
38 (SEAAELRSTA; listed as Homo sapiens) [compound 38] | 1 | –
175 (KENLVDGF; listed as Homo sapiens) [compound 175] | 2 | –
33 (GEFTSARAV; listed as Homo sapiens) [compound 33] | 1 | –
negative elongation factor complex member E [NELFE] | 6 | 20.0%
159 (VIYNEQMASK; listed as Homo sapiens) [compound 159] | 3 | –
27 (ATSAPLVSR; listed as Homo sapiens) [compound 27] | 1 | –
dystrophin [DMD] | 7 | 23.3%
5 (RHSNVNLTI; listed as Homo sapiens) [compound 5] | 1 | –
12 (KIADFGLAR; listed as Homo sapiens) [compound 12] | 1 | –
46 (DVTGQFPSSF; listed as Homo sapiens) [compound 46] | 1 | –
91 (EHADDDPSL; listed as Homo sapiens) [compound 91] | 1 | –
47 (EHSRVLQQL; listed as Homo sapiens) [compound 47] | 2 | –
171 (SDLARLILL; listed as Homo sapiens) [compound 171] | 1 | –
127 (SVIQHVQSF; listed as Homo sapiens) [compound 127] | 1 | –
157 (DPNPNFEKF; listed as Homo sapiens) [compound 157] | 1 | –
191 (RISEVLQKL; listed as Homo sapiens) [compound 191] | 1 | –
143 (TFGERVVAF; listed as Homo sapiens) [compound 143] | 1 | –

Substance | Number of positive CLLs | Number of positive CLLs (frequency [%])
146 (KITVPASQKL; listed as Homo sapiens) [compound 146] | 7 | –
166 (IPFSNPRVL; listed as Homo sapiens) [compound 166] | 2 | –
192 (TEVRELVSL; listed as Homo sapiens) [compound 192] | 2 | –
16 (QEDPGDNQITL; listed as Homo sapiens) [compound 16] | 1 | –
215 (DAMKRVEEI; listed as Homo sapiens) [compound 215] | 3 | –
26 (SPTSSRTSSL; listed as Homo sapiens) [compound 26] | 7 | –
32 (EEHLESHKKY; listed as Homo sapiens) [compound 32] | 2 | –
4 (EVAEFLARH; listed as Homo sapiens) [compound 4] | 2 | –
212 (GRLNSVNNR; listed as Homo sapiens) [compound 212] | 1 | –
130 (EVKEEIPLV; listed as Homo sapiens) [compound 130] | 1 | –
56 (FQYAKESYI; listed as Homo sapiens) [compound 56] | 1 | –
64 (LPQEPRTSL; listed as Homo sapiens) [compound 64] | 2 | –
22 (LEVEERTKPV; listed as Homo sapiens) [compound 22] | 1 | –
149 (KLPLPLPPRL; listed as Homo sapiens) [compound 149] | 3 | –
163 (KLYPTLVIR; listed as Homo sapiens) [compound 163] | 4 | –
125 (KPSEERKTI; listed as Homo sapiens) [compound 125] | 1 | –
92 (SEESVKSTTL; listed as Homo sapiens) [compound 92] | 2 | –
6 (HPDNVKLFL; listed as Homo sapiens) [compound 6] | 1 | –
128 (TPIERIPYL; listed as Homo sapiens) [compound 128] | 3 | –
24 (RPFVIVTA; listed as Homo sapiens) [compound 24] | 1 | –

From patent publication US10450346B2, “Immunotherapy against several tumors of the blood, in particular chronic lymphoid leukemia (CLL)” (Immatics biotechnologies GmbH, priority 2014, dated 2019)
